# Some of the results follow.
# B1: HopZSSI-T (Helicobacter pylori), B5Z6D0 (protein)
# chain: MGSSHHHHHHSSGLVPRGSHMENLYFQGEDNGFFISAGYQIGEAAQMVKNTGELKKLSDTYENLSNLLTNFNNLNQAVTNASSPSEINAAIDNLKANTQGLTGEKTNSPAYQAVYLALNAAVGLWNVIAYNVQCGPGNSSQQSVTFEGQPGHNSSSINCNLTGYNNGVSGPLSIDNFKQLNQAYQVLQQALKQGVPVLNNTNQKIEVKVTTQTNGQSSKETTTTTTTNDAQTLLQEASKMIDVLTTNCPWVNHNPGQNGGAPWGLIRQECVSGFATEFSAVTSMIKNAQEIVTQAQSLNANQNNQNAPQDFNPYTSADRAFAQNMLNHAQAQAKILELADQMKKDLNTIPSQFITNYLAACRIDGTTPSQGVTNNTWGAGCAYVEETITALNNSLAHFGTQAEQIKQSELLARTILDFRGSLSTLNSTYNSITTTASNTPNSPFLKNLISQSTNPNNPGGLQAVYQVNQSAYSQLLSATQELGHNPFRRIGLISSQT
# What was measured:
# Assay in all cases: glycan array binding signal (z-score within array); higher = stronger binding
# Settings in all cases: glycan notation: IUPAC condensed, linker removed
# [1] = biological target: Gal(b1-4)GlcNAc(b1-3)Gal(b1-4)GlcNAc(b1-3)Gal(b1-4)GlcNAc(b1-2)Man(a1-3)[Gal(b1-4)GlcNAc(b1-3)Gal(b1-4)GlcNAc(b1-3)Gal(b1-4)GlcNAc(b1-2)Man(a1-6)]Man(b1-4)GlcNAc(b1-4)GlcNAc
# Method in brief: (§1)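 Glycan array binding is given as a within-array Z-score, which can be read as non-binding when negative. The arrays, 3228 of them, came from the Consortium for Functional Glycomics database and were retained only where the protein sequence was available. Z-scores were averaged across arrays of the same protein sequence at different concentrations or buffers and across linkers.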
# [2] = biological target: Gal(b1-4)GlcNAc(b1-3)Gal(b1-4)GlcNAc(b1-3)Gal(b1-4)GlcNAc(b1-2)Man(a1-3)[Gal(b1-4)GlcNAc(b1-3)Gal(b1-4)GlcNAc(b1-3)Gal(b1-4)GlcNAc(b1-2)Man(a1-6)]Man(b1-4)GlcNAc(b1-4)[Fuc(a1-6)]GlcNAc
# Method in brief: as §1
# [3] = biological target: Gal(b1-4)GlcNAc(b1-3)Gal(b1-4)GlcNAc(b1-3)Gal(b1-4)GlcNAc(b1-2)[Gal(b1-4)GlcNAc(b1-3)Gal(b1-4)GlcNAc(b1-3)Gal(b1-4)GlcNAc(b1-6)]Man(a1-6)[Gal(b1-4)GlcNAc(b1-3)Gal(b1-4)GlcNAc(b1-3)Gal(b1-4)GlcNAc(b1-2)Man(a1-3)]Man(b1-4)GlcNAc(b1-4)[Fuc(a1-6)]GlcNAc
# Method in brief: as §1
# [4] = biological target: Gal(b1-4)GlcNAc(b1-3)Gal(b1-4)GlcNAc(b1-3)Gal(b1-4)GlcNAc(b1-3)Gal(b1-4)GlcNAc(b1-2)Man(a1-3)[Gal(b1-4)GlcNAc(b1-3)Gal(b1-4)GlcNAc(b1-3)Gal(b1-4)GlcNAc(b1-3)Gal(b1-4)GlcNAc(b1-2)Man(a1-6)]Man(b1-4)GlcNAc(b1-4)GlcNAc
# Method in brief: as §1
# [5] = biological target: Gal(b1-4)GlcNAc(b1-3)Gal(b1-4)GlcNAc(b1-3)Gal(b1-4)GlcNAc(b1-3)Gal(b1-4)GlcNAc(b1-2)Man(a1-3)[Gal(b1-4)GlcNAc(b1-3)Gal(b1-4)GlcNAc(b1-3)Gal(b1-4)GlcNAc(b1-3)Gal(b1-4)GlcNAc(b1-2)Man(a1-6)]Man(b1-4)GlcNAc(b1-4)[Fuc(a1-6)]GlcNAc
# Method in brief: as §1
# [6] = biological target: Gal(b1-4)GlcNAc(b1-3)Gal(b1-4)GlcNAc(b1-3)Gal(b1-4)GlcNAc(b1-3)Gal(b1-4)GlcNAc(b1-2)[Gal(b1-4)GlcNAc(b1-3)Gal(b1-4)GlcNAc(b1-3)Gal(b1-4)GlcNAc(b1-3)Gal(b1-4)GlcNAc(b1-6)]Man(a1-6)[Gal(b1-4)GlcNAc(b1-3)Gal(b1-4)GlcNAc(b1-3)Gal(b1-4)GlcNAc(b1-3)Gal(b1-4)GlcNAc(b1-2)Man(a1-3)]Man(b1-4)GlcNAc(b1-4)[Fuc(a1-6)]GlcNAc
# Method in brief: as §1
# [7] = biological target: Gal(b1-4)GlcNAc(b1-3)Gal(b1-4)GlcNAc(b1-3)Gal(b1-4)GlcNAc(b1-3)Gal(b1-4)GlcNAc(b1-3)Gal(b1-4)GlcNAc(b1-2)Man(a1-3)[Gal(b1-4)GlcNAc(b1-3)Gal(b1-4)GlcNAc(b1-3)Gal(b1-4)GlcNAc(b1-3)Gal(b1-4)GlcNAc(b1-3)Gal(b1-4)GlcNAc(b1-2)Man(a1-6)]Man(b1-4)GlcNAc(b1-4)GlcNAc
# Method in brief: as §1
# [8] = biological target: Gal(b1-4)GlcNAc(b1-3)Gal(b1-4)GlcNAc(b1-3)Gal(b1-4)GlcNAc(b1-3)Gal(b1-4)GlcNAc(b1-3)Gal(b1-4)GlcNAc(b1-2)Man(a1-3)[Gal(b1-4)GlcNAc(b1-3)Gal(b1-4)GlcNAc(b1-3)Gal(b1-4)GlcNAc(b1-3)Gal(b1-4)GlcNAc(b1-3)Gal(b1-4)GlcNAc(b1-2)Man(a1-6)]Man(b1-4)GlcNAc(b1-4)[Fuc(a1-6)]GlcNAc
# Method in brief: as §1
# [9] = biological target: Gal(b1-4)GlcNAc(b1-3)Gal(b1-4)GlcNAc(b1-3)Gal(b1-4)GlcNAc(b1-3)Gal(b1-4)GlcNAc(b1-3)Gal(b1-4)GlcNAc(b1-2)[Gal(b1-4)GlcNAc(b1-3)Gal(b1-4)GlcNAc(b1-3)Gal(b1-4)GlcNAc(b1-3)Gal(b1-4)GlcNAc(b1-3)Gal(b1-4)GlcNAc(b1-6)]Man(a1-6)[Gal(b1-4)GlcNAc(b1-3)Gal(b1-4)GlcNAc(b1-3)Gal(b1-4)GlcNAc(b1-3)Gal(b1-4)GlcNAc(b1-3)Gal(b1-4)GlcNAc(b1-2)Man(a1-3)]Man(b1-4)GlcNAc(b1-4)[Fuc(a1-6)]GlcNAc
# Method in brief: as §1
# [10] = biological target: Gal(b1-4)GlcNAc(b1-3)Gal(b1-4)GlcNAc(b1-3)Gal(b1-4)GlcNAc(b1-3)Gal(b1-4)GlcNAc(b1-3)Gal(b1-4)GlcNAc(b1-3)Gal(b1-4)GlcNAc(b1-2)Man(a1-3)[Gal(b1-4)GlcNAc(b1-3)Gal(b1-4)GlcNAc(b1-3)Gal(b1-4)GlcNAc(b1-3)Gal(b1-4)GlcNAc(b1-3)Gal(b1-4)GlcNAc(b1-3)Gal(b1-4)GlcNAc(b1-2)Man(a1-6)]Man(b1-4)GlcNAc(b1-4)GlcNAc
# Method in brief: as §1
# [11] = biological target: Gal(b1-4)GlcNAc(b1-3)Gal(b1-4)GlcNAc(b1-3)GalNAc
# Method in brief: as §1
# [12] = biological target: Gal(b1-4)GlcNAc(b1-3)Gal(b1-4)GlcNAc(b1-3)[Gal(b1-4)GlcNAc(b1-3)Gal(b1-4)GlcNAc(b1-6)]GalNAc
# Method in brief: as §1
# [13] = biological target: Gal(b1-4)GlcNAc(b1-3)Gal(b1-4)GlcNAc(b1-6)[Gal(b1-3)]GalNAc
# Method in brief: as §1
# [14] = biological target: Gal(b1-4)GlcNAc(b1-3)Gal(b1-4)[Fuc(a1-3)]GlcNAc(b1-3)Gal(b1-4)[Fuc(a1-3)]GlcNAc
# Method in brief: as §1
# [15] = biological target: Gal(b1-4)GlcNAc(b1-3)GalNAc
# Method in brief: as §1
# [16] = biological target: Gal(b1-4)GlcNAc(b1-3)[Fuc(a1-3)GlcNAc(b1-6)]Gal(b1-4)Glc
# Method in brief: as §1
# [17] = biological target: Gal(b1-4)GlcNAc(b1-3)[Gal(b1-4)GlcNAc(b1-6)]Gal(b1-4)GlcNAc
# Method in brief: as §1
# [18] = biological target: Gal(b1-4)GlcNAc(b1-3)[GlcNAc(b1-6)]Gal(b1-4)GlcNAc
# Method in brief: as §1
# [19] = biological target: Gal(b1-4)GlcNAc(b1-6)Gal(b1-4)GlcNAc
# Method in brief: as §1
binder,measurement,setting,value
B1,glycan array binding signal (z-score),[1],0.315
same,glycan array binding signal (z-score),[2],0.707
same,glycan array binding signal (z-score),[3],-0.129
same,glycan array binding signal (z-score),[4],0.638
same,glycan array binding signal (z-score),[5],1.74
same,glycan array binding signal (z-score),[6],0.699
same,glycan array binding signal (z-score),[7],2.12
same,glycan array binding signal (z-score),[8],1.86
same,glycan array binding signal (z-score),[9],0.695
same,glycan array binding signal (z-score),[10],0.41
same,glycan array binding signal (z-score),[11],0.115
same,glycan array binding signal (z-score),[12],0.016
same,glycan array binding signal (z-score),[13],0.858
same,glycan array binding signal (z-score),[14],-0.202
same,glycan array binding signal (z-score),[15],-0.841
same,glycan array binding signal (z-score),[16],-0.481
same,glycan array binding signal (z-score),[17],-0.007
same,glycan array binding signal (z-score),[18],0.102
same,glycan array binding signal (z-score),[19],-0.411

# Random excerpt: two records from the list.
binder,measurement,setting,value
B1,glycan array binding signal (z-score),[10],0.41
same,glycan array binding signal (z-score),[14],-0.202
